Results published in US10646496B2, “Joint application of statin and adrenocortical hormone for treating chronic subdural hematoma” (priority 2016, dated 2020).
Values joined by “and” are separate entries in the source; they are usually repeats but may differ in a detail not shown here. Equal values may be shown once.

How the values were obtained:
subdural hematoma = conditions: small-dose atorvastatin
[1] = tested on: chronic subdural hematoma; conditions: atorvastatin alone
subcutaneous hematoma = conditions: large-dose group compared with small-dose atorvastatin group
[2] = tested on: VEGF, TGF-β, MMP-9 and Ang-1/2; assay: Rat subdural hematoma model: factor expression in hematoma capsule/cavity (real-time PCR, ELISA); format: in vivo; conditions: small-dose group 3 mg/kg/day, 7 days after the operation, vs control and large-dose group
Text: In FIG. 1 to FIG. 9, “#” denotes a statistically significant difference in the small-dose group and the large-dose group as compared with the control group; and “*” denotes a statistically significant difference between the small-dose group and the large-dose group.

CC(C)c1c(C(=O)Nc2ccccc2)c(-c2ccccc2)c(-c2ccc(F)cc2)n1CC[C@@H](O)C[C@@H](O)CC(=O)O [atorvastatin]
absorption of hematoma (subdural hematoma): accelerated
patients with a poor hematoma absorption effect ([1]; among the 52 patients): 7 patients
average hematoma absorption rate ([1]; one month after administration): 49.43% and 49%
hematoma absorption speed (subcutaneous hematoma): not significantly improved
ratio Ang-1/Ang-2 [2]: significantly higher
